Data reported in article PMC5190019.
These are yes or no findings as the source states them, for the method shown. Binding seen in cells or lysates may run through a third protein. Some entries that bind do so weakly or less than the wild type.

Sequences of proteins named here, by UniProt entry; tags and fusion partners are left off. Residues count along the entry.
UniProt P46531, residues 19-2555: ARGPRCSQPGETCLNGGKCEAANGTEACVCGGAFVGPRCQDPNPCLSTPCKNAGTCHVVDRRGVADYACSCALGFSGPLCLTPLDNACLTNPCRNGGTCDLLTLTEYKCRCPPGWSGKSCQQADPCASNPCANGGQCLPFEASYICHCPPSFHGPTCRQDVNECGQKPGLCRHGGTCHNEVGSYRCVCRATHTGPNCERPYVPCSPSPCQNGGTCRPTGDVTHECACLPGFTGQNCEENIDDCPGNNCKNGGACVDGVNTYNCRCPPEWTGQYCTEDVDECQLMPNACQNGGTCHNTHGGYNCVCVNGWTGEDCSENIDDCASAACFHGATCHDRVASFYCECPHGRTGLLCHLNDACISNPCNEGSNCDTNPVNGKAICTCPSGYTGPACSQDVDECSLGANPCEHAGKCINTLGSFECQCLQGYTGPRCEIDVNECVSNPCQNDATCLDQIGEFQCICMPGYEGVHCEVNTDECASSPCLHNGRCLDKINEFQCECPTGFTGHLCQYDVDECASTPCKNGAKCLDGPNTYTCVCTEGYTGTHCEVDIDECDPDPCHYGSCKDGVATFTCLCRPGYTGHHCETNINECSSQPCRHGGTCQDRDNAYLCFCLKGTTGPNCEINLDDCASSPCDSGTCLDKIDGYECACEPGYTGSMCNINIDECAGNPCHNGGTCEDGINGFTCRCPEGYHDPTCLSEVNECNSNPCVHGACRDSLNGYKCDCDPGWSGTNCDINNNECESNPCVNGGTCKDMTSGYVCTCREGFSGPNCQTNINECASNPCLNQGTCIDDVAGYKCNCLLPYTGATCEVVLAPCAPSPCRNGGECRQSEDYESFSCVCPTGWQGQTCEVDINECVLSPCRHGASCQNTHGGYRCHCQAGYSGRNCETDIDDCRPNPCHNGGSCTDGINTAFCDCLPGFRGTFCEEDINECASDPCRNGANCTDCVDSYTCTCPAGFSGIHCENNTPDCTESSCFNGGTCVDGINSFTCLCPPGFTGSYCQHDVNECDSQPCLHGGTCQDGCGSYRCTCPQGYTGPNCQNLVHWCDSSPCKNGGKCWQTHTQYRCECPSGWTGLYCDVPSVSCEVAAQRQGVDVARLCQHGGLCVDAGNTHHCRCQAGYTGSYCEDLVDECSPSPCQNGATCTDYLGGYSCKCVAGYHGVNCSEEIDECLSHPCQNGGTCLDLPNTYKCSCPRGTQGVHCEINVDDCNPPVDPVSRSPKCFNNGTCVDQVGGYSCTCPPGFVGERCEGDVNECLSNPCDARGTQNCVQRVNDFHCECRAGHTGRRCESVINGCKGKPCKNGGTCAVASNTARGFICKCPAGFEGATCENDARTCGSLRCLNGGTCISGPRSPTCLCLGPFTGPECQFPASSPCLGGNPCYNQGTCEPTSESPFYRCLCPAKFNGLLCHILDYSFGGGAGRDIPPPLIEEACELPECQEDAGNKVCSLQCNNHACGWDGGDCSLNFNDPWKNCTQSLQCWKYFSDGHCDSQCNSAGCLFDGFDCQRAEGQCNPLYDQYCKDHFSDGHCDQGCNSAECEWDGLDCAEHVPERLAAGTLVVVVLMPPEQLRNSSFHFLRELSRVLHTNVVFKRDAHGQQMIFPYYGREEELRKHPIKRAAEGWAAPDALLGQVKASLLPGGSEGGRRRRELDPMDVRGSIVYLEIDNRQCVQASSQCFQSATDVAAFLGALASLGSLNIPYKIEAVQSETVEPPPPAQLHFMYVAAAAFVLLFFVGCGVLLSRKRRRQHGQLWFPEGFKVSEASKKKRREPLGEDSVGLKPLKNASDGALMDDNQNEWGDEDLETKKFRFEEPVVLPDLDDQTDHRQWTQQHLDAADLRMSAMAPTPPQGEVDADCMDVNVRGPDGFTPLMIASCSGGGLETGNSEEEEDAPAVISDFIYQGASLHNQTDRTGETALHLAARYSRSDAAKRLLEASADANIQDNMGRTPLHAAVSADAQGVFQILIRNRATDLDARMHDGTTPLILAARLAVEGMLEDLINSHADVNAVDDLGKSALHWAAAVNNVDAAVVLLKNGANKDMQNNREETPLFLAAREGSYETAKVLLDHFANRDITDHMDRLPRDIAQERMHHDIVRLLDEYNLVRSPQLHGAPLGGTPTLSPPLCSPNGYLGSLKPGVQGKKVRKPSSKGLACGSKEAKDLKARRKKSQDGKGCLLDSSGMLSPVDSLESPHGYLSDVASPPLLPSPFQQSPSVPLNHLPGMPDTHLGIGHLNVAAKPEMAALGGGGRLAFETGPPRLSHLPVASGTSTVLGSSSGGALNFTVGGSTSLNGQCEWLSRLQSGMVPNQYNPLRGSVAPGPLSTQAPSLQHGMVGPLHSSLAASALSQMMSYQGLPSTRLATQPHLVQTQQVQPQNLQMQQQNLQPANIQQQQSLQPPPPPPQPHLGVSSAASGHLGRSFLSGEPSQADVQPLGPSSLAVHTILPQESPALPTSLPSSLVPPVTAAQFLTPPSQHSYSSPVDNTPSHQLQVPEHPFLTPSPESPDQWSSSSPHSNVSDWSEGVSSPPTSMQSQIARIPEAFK
UniProt P11309: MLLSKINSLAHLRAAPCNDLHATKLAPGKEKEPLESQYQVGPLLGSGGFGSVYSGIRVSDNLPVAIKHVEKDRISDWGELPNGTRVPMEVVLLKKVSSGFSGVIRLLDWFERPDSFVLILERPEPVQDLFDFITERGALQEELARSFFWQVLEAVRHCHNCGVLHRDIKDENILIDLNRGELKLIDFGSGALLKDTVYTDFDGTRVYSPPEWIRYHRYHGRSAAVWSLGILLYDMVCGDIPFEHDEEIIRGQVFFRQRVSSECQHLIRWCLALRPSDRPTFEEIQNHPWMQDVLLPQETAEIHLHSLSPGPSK

Target: endogenous Notch1 (human (endogenous in MCF-7)) (UniProt P46531)
Test: proximity ligation; in situ PLA (Duolink) on methanol/acetone-fixed MCF-7 cells, endogenous proteins, primary antibodies to Pim1, Notch1 or CoxII

In the case of “endogenous Pim1 (from UniProt P11309 1-313) (enzyme)”, the binding was “binds”.
